Results: patent US20170022269A1
Results are given in words; binding and its absence hold for the method and conditions named. Some results given as binding are weak or reduced against the parent protein; the word gives no strength.

T1: Aβ(20-42) globulomer (human)
T1 sequence (peptide): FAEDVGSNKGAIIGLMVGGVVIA


What was measured:
[1] = target: T1, Aβ(20-42) globulomer (human); test: dot blot on nitrocellulose, antibody 0.2 µg/ml
[2] = target: T1, Aβ(20-42) globulomer (human); test: dot blot, antibody 0.2 µg/ml

binding [1] | binding [2] | Binder
binds | binds | monoclonal antibody 10C1 (antibody, V domains shown) VH: EVKLVESGGGLVQPGGSRKLSCAASGFTFSDYEMVWVRQAPGKGLEWVAYINSGSGTIHYADTVKGRFTISRDNPKNTLFLQMSSLRSEDTAMYYCARTLLRLHFDYWGQGTILTVSS VL: DIVMSQSPSSLAVSVGEKVTMSCKSSQSLFYSRNQKNFLAWYQQKPGQSPKLLIYWASTGESGVPDRFTGSGSGTDFTLTISSVKAEDLAVYYCQQYFSYPWTFGGGTKLEIKR
binds | binds | monoclonal antibody 7E5 (antibody, V domains shown) VH: EVKLVESGGGLVQPGGSRKLSCAASGFTFSDYEMVWVRQAPGEGLEWVAYISSGSRTIHYADTVKGRFTISRDNPKNTLFLQMSSLRSEDTAMYYCARTLLRLHFDYWGQGTILTVSS VL: DIVMSQSPSSLAVSVGEKVTMSCRSSQSLFYRSNQKNFLAWYQQKPGQSPKLLIYWASTRESGVPDRFTGSGSGTDFTLTISSVKAEDLAVYYCQQYYSYPWTFGGGTKLEIKR

The next lines start with the binder.

Binder | binding [1] | binding [2]
monoclonal antibody 4B7 (antibody, V domains shown) VH: EVKLVESGGGLVQPGGSRKLSCAASGFTFSDYEMVWVRQAPGEGLEWVAYISSGSRTIHYADTVKGRFTISRDNPKNTLFLQMSSLRSEDTAMYYCARTLLRLHFDYWGQGTILTVSS VL: DIVMSQSPSSLAVSVGEKVTMSCRSSQSLFYRSNQKNFLAWYQQKPGQSPKLLIYWASTRESGVPDRFTGSGSGTDFTLTISSVKAEDLAVYYCQQYYSYPWTFGGGTKLEIKR | binds | binds
monoclonal antibody 7C6 (antibody, V domains shown) VH: EVKLVESGGGLVKPGGSLKLSCAASGFTFSSYAMSWVRQTPAKRLEWVASIHNRGTIFYLDSVKGRFTISRDNVRNTLYLQMSSLRSEDTAIYYCTRGRSNSYAMDYWGQGTSVTVSS VL: DVLVTQSPLSLPVRLGDQASISCRSTQTLVHRNGDTYLEWYLQKPGQSPKSLIYKVSNRFSGVPDRFSGSGSGTDFTLKISRVEAEDLGVYYCFQGSHVPYTFGGGTKLEIKR | binds | binds
monoclonal antibody 5F7 (antibody, V domains shown) VH: QVQLKQSGAELVRPGTSVKMSCKASGYTFTTFYIHWVKQRPGQGLEWIGMIGPGSGNTYYNEMFKDKATLTVDTSSSTAYMQLSSLTSEDSAVYFCARAKSARAAWFAYWGQGTLVTVSA VL: DVLMTQTPLSLPVSLGDQASISCRSSQSVVQSNGNTYLEWYLQKPGQSPKLLIYKVSNRFSGVPDRFSGSGSGTDFTLKISRVEAEDLGVYYCFQGSHVPPTFGGGTKLEIKR | binds | binds
monoclonal antibody 2F2 (antibody, V domains shown) VH: QVQLKQSGAELVRPGTSVKMSCKASGYTFTTFYIHWVKQRPGQGLEWIGMIGPGSGNTYYNEMFKDKATLTVDTSSSTAYMQLSSLTSEDSAVYFCARAKSARAAWFAYWGQGTLVTVSA VL: DVLMTQTPLSLPVSLGDQASISCRSSQSVVQSNGNTYLEWYLQKPGQSPKLLIYKVSNRFSGVPDRFSGSGSGTDFTLKISRVEAEDLGVYYCFQGSHVPPTFGGGTKLEIKR | binds | binds
